The source of these data is PubChem BioAssay AID2685 (National Center for Advancing Translational Sciences (NCATS), 2010).

The nature of the test: qHTS Assay for Lipid Storage Modulators in Drosophila S3 Cells.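 As to cell number change: cells counted by Cell Tracker Red CMTPX staining in the red channel.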 Particulars: BODIPY lipid droplet fluorescence, 18-24 h; for cell number change: measured here: cell count max response, cells fed with added oleic acid. A digest of the protocol:
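Laser-scanning cytometry quantifies lipid droplet accumulation (500–530 nm total intensity; droplet/cell object ratio) in oleic acid-fed (400 uM added) Drosophila S3 cells treated with a concentration series. 20 uM Triacsin C defined 100% inhibition.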

The mark [1] stands for this setting: measured here: cell number channel AC50, cells fed with added oleic acid.
The mark [2] stands for this setting: measured here: lipid fluorescence (Fed channel) AC50, cells fed with added oleic acid.

This is one part of the list. Further columns of the screen follow, without active or inactive calls. Most of these compounds were active or inconclusive in the main read-out, so they are no random draw. Words in brackets tell the shape of the fitted curve; partial curves, single points and poor fits give uncertain potencies.

As a reminder, the AC50 is the concentration giving half of the maximal activity seen. As to `O=C(Nc1nc(-c2ccccc2)cs1)c1ccc(N2CCOCC2)c([N+](=O)[O-])c1`, the cell number change is -42.5%. Under setting [1], the AC50 was 14.6 µM [falling, partial curve]. Besides, the AC50 under setting [2] was 14.6 µM [falling, partial curve]. On to `CCOc1ccc(N2CC(C(=O)NCCC3=CCCCC3)CC2=O)cc1` (configuration not stated), for which the cell number change was -6.52%. The AC50 under setting [2] was 6.51 µM [falling, partial curve]. With `CCOc1ccccc1NC(=O)CCNC(=O)Cn1ccc2ccccc2c1=O`, the cell number change was determined as 3.95%. For the same molecule, the AC50 under setting [1] is 0.0731 µM [rising, full curve, poor fit]. The AC50 under setting [2] was 5.62 µM [rising, single point]. For `Cc1oc2c(C)c(O)ccc2c(=O)c1N1C(=O)c2ccccc2C1=O`, the cell number change was 3.26%.

On to `O=C(Nc1ccc(S(=O)(=O)N2CCOCC2)cc1)c1ccc(Cl)cc1`, for which the cell number change is -15.4%. Turning to `COc1ccc(C(=O)Nn2c(CC(C)C)nc3cc(OC)c(OC)cc3c2=O)c(OC)c1`, the cell number change was -12.6%. Moreover, the AC50 under setting [2] was 29.1 µM [falling, single point]. For `COc1ccccc1NC(=O)CSc1n[nH]c(-c2ccccn2)n1`, the cell number change turned out to be 13.2%. Regarding `CC(=O)NC(N1CCCCC1)C(F)(F)C(F)(F)C(F)(F)C(F)F` (configuration not stated), the cell number change was -0.325%. Moreover, the AC50 under setting [2] was 29.1 µM [falling, single point]. Regarding `O=C(Cc1ccccc1)Nc1ccnn1C1CCN(Cc2ccc(CO)o2)CC1`, the cell number change worked out at 30.7%. Moreover, under setting [1], the AC50 was 0.92 µM [rising, full curve, poor fit]. For the same molecule, the AC50 under setting [2] is 6.51 µM [rising, single point]. For `O=C(C1CCN(S(=O)(=O)c2ccc3ccccc3c2)CC1)N1CCN(c2ncccn2)CC1`, the cell number change was 32%. The AC50 under setting [1] is 5.8 µM [rising, partial curve]. Besides, the AC50 under setting [2] was 4.11 µM [rising, single point]. As for `CC(=O)Oc1ccc(-c2cccc(C(=O)O)c2)cc1`, the cell number change is 16.5%. Besides, under setting [2], the AC50 was 0.259 µM [falling, full curve]. For `CCOC(=O)c1cc(-c2ccccc2)sc1NC(=O)CCN1C(=O)c2ccccc2C1=O`, the cell number change was -2.89%. Moreover, the AC50 under setting [2] was 0.164 µM [rising, full curve, poor fit]. For `O=C(O)c1cccnc1SC1CC(=O)N(c2ccc(OC(F)F)cc2)C1=O` (configuration not stated), the cell number change is -32.4%. For the same molecule, the half-maximal activity concentration (AC50) under setting [1] is 0.82 µM [falling, full curve, poor fit]. Further, under setting [2], the AC50 was 8.2 µM [falling, partial curve].

`COc1cc(OC)cc(C(=O)N[C@H](C(=O)OCC(=O)Nc2cccc(F)c2)C(C)C)c1`: the AC50 under setting [2] was 20.6 µM [rising, single point]. Turning to `CCCCNC(=O)c1cc2n(n1)C(C(F)(F)F)CC(c1ccccc1)N2` (configuration not stated), the cell number change was 11.8%. The concentration at half-maximal activity (AC50) under setting [2] was 8.2 µM [rising, partial curve, poor fit]. Regarding `CC(=O)c1ccc(NC(=O)COc2ccc3c(c2)OCO3)cc1`, the cell number change turned out to be 19.4%. With `COC(=O)C(NC(=O)C(C)NC(=O)OCc1ccccc1)C(C)C` (configuration not stated), the cell number change is -17.8%. Besides, the AC50 under setting [2] is 3.66 µM [falling, single point]. As for `NC(=O)C1CCN(C(=O)COCc2cc(-c3ccc4c(c3)OCO4)on2)CC1`, the cell number change amounted to 17.3%. For the same molecule, under setting [2], the AC50 is 16.4 µM [rising, partial curve]. On to `N#Cc1ccccc1COC(=O)c1ccc2c(c1)OCCO2`, for which the cell number change worked out at 106%. Further, under setting [1], the AC50 was 10.3 µM [rising, partial curve]. For `CN(C)C(=O)c1ccc(Nc2nc(-c3cccs3)nc3ccccc23)cc1`, the cell number change was found to be 13.9%. Regarding `CCOc1cc(S(=O)(=O)Nc2ccccc2CC)ccc1Cl`, the cell number change is -18%. Also, the AC50 under setting [2] is 0.82 µM [falling, full curve]. With `Cc1cc(C)c(S(=O)(=O)N(C)CC(=O)NCCCn2ccnc2)c(C)c1`, the cell number change is -14.5%. Under setting [2], the AC50 was 35.5 µM [rising, single point]. Turning to `CCc1noc(C)c1C(=O)OCC(=O)N(CCOC)c1c(N)n(Cc2ccccc2)c(=O)[nH]c1=O`, the cell number change was determined as 32.5%. For the same molecule, the AC50 under setting [1] was 25.9 µM [rising, single point].

Regarding `COC(=O)c1ccccc1NC(=O)CSc1nnc(C(CO)NC(=O)c2ccccc2Cl)n1C` (configuration not stated), the cell number change worked out at 8.96%. Under setting [2], the AC50 is 5.17 µM [rising, single point]. As to `CCC(C(=O)O)n1nc(-c2ccccc2)c2cc(Cl)ccc21` (configuration not stated), the cell number change was 21%. For the same molecule, under setting [2], the concentration at half-maximal activity (AC50) is 11.6 µM [rising, partial curve]. Take `Cc1ccc(S(=O)(=O)c2c(C)nn(-c3ccccc3)c2OC(=O)c2ccc(Br)o2)cc1`: the cell number change came out at 60.6%. The AC50 under setting [1] is 3.26 µM [falling, partial curve]. Also, the AC50 under setting [2] is 10.3 µM [rising, partial curve]. With `Cc1ccc(CCNC(=O)c2cccc(N3CCCC3=O)c2)cc1`, the cell number change was 15%. Moreover, the AC50 under setting [2] is 20.6 µM [rising, single point]. As for `CC1=C(C(=O)Nc2cccnc2)C(c2ccncc2)n2nnnc2N1` (configuration not stated), the cell number change is -2.02%. Moreover, under setting [2], the AC50 is 6.51 µM [falling, single point]. For the molecule `COc1ccc(OC)c2c1sc(=NC(=O)C(C)(C)C)n2C`, the cell number change was 15.5%. As for `Cc1cccc(N2CCN(C(=O)NC3CCCCC3)CC2)c1C`, the cell number change amounted to 8.07%. As to `CCC(C#CCN1CCCCC1)(CC)OCCC#N`, the cell number change is -1.6%. As to `COc1cccc(NC(=O)CN(C)C(=O)c2c(C)nn(CC(C)C)c2Cl)c1`, the cell number change was -17.3%. Also, the AC50 under setting [2] was 6.51 µM [rising, partial curve, poor fit]. On to `Cc1cc(S(=O)(=O)Nc2ccc(F)cc2)c(C)s1`, for which the cell number change was -31.6%. For the same molecule, the AC50 under setting [1] was 29.1 µM [falling, single point]. Also, under setting [2], the AC50 is 6.51 µM [rising, single point]. With `O=C(CCc1nnc(Cc2ccc(-c3ccccc3)cc2)o1)NCC1CC1`, the cell number change was determined as 0.873%.

With `COc1ccc(Cl)cc1NC(=O)CN(C)C(=O)C1CC(=O)N(Cc2ccc(C)cc2)C1` (configuration not stated), the cell number change came out at 21.6%. The AC50 under setting [1] is 3.66 µM [rising, full curve, poor fit]. For the molecule `CC(/C=C/c1ccccc1)=N\NC(=O)c1cc(C)[nH]n1`, the cell number change is 35.1%. Moreover, the AC50 under setting [1] was 2.06 µM [rising, full curve]. As to `CCOc1ccc(/C=C/C(=O)Oc2ccc(OC)cc2)cc1`, the cell number change was -3.17%. The AC50 under setting [2] is 1.46 µM [rising, partial curve, poor fit]. As to `CC1(C)CC(=O)C=C(C(=O)NC2CCCc3c2cnn3-c2cc(F)cc(F)c2)O1` (configuration not stated), the cell number change is -26.2%. Moreover, the AC50 under setting [1] is 1.84 µM [falling, partial curve, poor fit]. Further, the AC50 under setting [2] is 0.58 µM [falling, single point]. As to `COc1ccc(S(=O)(=O)Cc2ccc(C(=O)N3CCN(c4cccc(C)c4C)CC3)o2)cc1`, the cell number change is -1.29%. In addition, the AC50 under setting [2] is 3.26 µM [rising, single point].

`Cc1cccc(N2CCN(C(=O)c3cccc(N4C(=O)C5C6C=CC(C6)C5C4=O)c3)CC2C)c1` (configuration not stated): the cell number change was 57.4%. In addition, the AC50 under setting [1] was 14.6 µM [rising, single point]. For `O=C(NCCCCC(NC(=O)C1CCCCC1)C(=O)O)c1ccccc1` (configuration not stated), the cell number change is -41.5%. For the same molecule, under setting [1], the AC50 is 23.1 µM [falling, single point]. Moreover, under setting [2], the AC50 was 25.9 µM [falling, single point]. On to `CN(CC(=O)Nc1ccc(OC(F)(F)F)cc1)C(=O)c1ccc(N2CCCC2=O)cc1`, for which the cell number change is 0.907%. Moreover, the AC50 under setting [2] was 29.1 µM [falling, single point]. As to `CC(C)C(=O)Nc1cccc(-c2cn3ccsc3n2)c1`, the cell number change is 4.14%. Also, under setting [2], the AC50 was 18.4 µM [rising, single point].

For `CN1CCN(c2cc(=O)n(C3CCCCC3)c(=O)[nH]2)CC1`, the cell number change is -42.4%. Further, the AC50 under setting [1] is 0.517 µM [falling, full curve]. The AC50 under setting [2] is 14.6 µM [falling, partial curve].

As for `CCOc1ccc(CCNC(=O)COC(=O)c2oc3ccccc3c2COC)cc1OCC`, the cell number change was -48.2%. The AC50 under setting [1] was 9.2 µM [falling, partial curve, poor fit]. Further, the AC50 under setting [2] is 0.164 µM [falling, full curve]. For the molecule `CC(C)c1ccc(S(=O)(=O)N2CCN(CC(O)CN3CCOCC3)CC2)cc1` (configuration not stated), the cell number change was -0.774%. The AC50 under setting [2] was 0.116 µM [falling, full curve, poor fit]. Regarding `CCOc1ccc(N(C)S(=O)(=O)c2ccc3[nH]cc(C(=O)NCC(OC)OC)c(=O)c3c2)cc1`, the cell number change was -29.1%. Also, the AC50 under setting [2] was 29.1 µM [falling, single point]. In the case of `Cc1nn(-c2ccccc2)c(N)c1C(O)(C(F)(F)F)C(F)(F)F`, the cell number change came out at 28.7%.

On to `Clc1cccc(-c2nn3c(-c4ccncc4)nnc3s2)c1`, for which the cell number change was -1.25%. As to `O=C(O)c1cc(S(=O)(=O)N2CCOCC2)c[nH]1`, the cell number change was determined as 13.4%. As for `CCN(CC)S(=O)(=O)c1cc(NC(=O)C2CCN(c3ncnc4sc(C)c(C)c34)CC2)ccc1Cl`, the cell number change is -6.5%. Besides, under setting [1], the AC50 is 3.26 µM [rising, partial curve, poor fit]. Take `Cc1csc(SCCn2c(Br)nc3c2c(=O)[nH]c(=O)n3C)n1`: the cell number change amounted to 26.1%. In addition, the AC50 under setting [2] is 5.17 µM [rising, full curve, poor fit].

Consider `O=C(CC12CC3CC(CC(Br)(C3)C1)C2)Nc1nncs1`, for which the cell number change is 12.6%. Also, under setting [2], the AC50 is 6.51 µM [rising, partial curve].

For `CCOc1ccc(NS(=O)(=O)c2ccc(C(=O)NCC3(N(C)C)CCCCC3)cc2)cc1`, the AC50 is, setting by setting: under setting [1], 4.11 µM [rising, partial curve]; under setting [2], 6.51 µM [rising, single point]. Take `CCn1cc(/C=N\NC(=O)Cc2ccc(Cl)cc2)cn1`: the cell number change was -52%. The AC50 under setting [1] was 29.1 µM [falling, single point]. For `O=C(N/N=C/c1cccnc1)c1ccc(Cn2cc([N+](=O)[O-])cn2)o1`, the cell number change is 17.2%. Also, under setting [1], the AC50 was 0.116 µM [falling, full curve, poor fit]. Further, the AC50 under setting [2] is 0.116 µM [falling, full curve, poor fit]. For the molecule `O=C(Nc1sc2c(c1C(=O)O)CCCC2)c1cccs1`, the cell number change was 8.68%. Besides, the AC50 under setting [2] was 0.58 µM [rising, single point]. For the molecule `Cc1cc(Oc2ccc(Cl)cc2)nc(SCC(=O)c2ccccc2)n1`, the cell number change was found to be 20.7%. Under setting [2], the AC50 was 1.64 µM [falling, partial curve]. `COCCNC(=O)Nc1ccc2nc(-c3cccs3)c(-c3cccs3)nc2c1`: the AC50 was 4.11 µM [rising, single point] under setting [1] and 20.6 µM [rising, single point] under setting [2].
